Experimental findings from patent publication US10087187B2, “Imidazopyridazine derivatives as PI3KB inhibitors” (Janssen Pharmaceutica NV, priority 2014, dated 2018) are described below.

Amino acid sequences for entries named in this document (tags omitted). A change or cut given only in a name is not applied to a line headed by its entry.
UniProt O00329, whole entry: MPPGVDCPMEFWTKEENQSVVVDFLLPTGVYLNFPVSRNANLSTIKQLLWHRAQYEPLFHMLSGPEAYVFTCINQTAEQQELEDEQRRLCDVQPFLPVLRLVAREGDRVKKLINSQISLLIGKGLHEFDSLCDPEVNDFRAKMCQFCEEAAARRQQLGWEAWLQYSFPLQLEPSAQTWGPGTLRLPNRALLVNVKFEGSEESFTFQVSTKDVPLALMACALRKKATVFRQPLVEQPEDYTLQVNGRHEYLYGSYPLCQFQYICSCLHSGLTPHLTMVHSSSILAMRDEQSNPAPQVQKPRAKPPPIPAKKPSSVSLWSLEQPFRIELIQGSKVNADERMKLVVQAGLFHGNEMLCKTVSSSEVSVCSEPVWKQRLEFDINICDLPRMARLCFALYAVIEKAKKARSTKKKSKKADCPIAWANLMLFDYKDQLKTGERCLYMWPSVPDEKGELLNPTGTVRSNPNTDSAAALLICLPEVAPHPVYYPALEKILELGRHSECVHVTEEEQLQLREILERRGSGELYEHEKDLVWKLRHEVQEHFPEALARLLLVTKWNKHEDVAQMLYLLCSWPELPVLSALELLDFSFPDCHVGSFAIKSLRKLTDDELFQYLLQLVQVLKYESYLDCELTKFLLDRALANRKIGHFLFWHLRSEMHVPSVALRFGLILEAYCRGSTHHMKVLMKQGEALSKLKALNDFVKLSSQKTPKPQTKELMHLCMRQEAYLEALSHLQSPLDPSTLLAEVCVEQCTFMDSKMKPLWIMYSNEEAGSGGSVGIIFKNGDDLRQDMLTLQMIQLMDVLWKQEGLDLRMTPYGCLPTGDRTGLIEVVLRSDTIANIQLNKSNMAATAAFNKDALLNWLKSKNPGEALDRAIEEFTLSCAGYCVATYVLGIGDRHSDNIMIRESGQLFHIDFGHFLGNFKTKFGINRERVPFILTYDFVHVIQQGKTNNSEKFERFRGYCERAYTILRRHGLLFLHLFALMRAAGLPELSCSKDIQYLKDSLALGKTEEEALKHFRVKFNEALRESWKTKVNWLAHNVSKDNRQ
UniProt P42336, whole entry: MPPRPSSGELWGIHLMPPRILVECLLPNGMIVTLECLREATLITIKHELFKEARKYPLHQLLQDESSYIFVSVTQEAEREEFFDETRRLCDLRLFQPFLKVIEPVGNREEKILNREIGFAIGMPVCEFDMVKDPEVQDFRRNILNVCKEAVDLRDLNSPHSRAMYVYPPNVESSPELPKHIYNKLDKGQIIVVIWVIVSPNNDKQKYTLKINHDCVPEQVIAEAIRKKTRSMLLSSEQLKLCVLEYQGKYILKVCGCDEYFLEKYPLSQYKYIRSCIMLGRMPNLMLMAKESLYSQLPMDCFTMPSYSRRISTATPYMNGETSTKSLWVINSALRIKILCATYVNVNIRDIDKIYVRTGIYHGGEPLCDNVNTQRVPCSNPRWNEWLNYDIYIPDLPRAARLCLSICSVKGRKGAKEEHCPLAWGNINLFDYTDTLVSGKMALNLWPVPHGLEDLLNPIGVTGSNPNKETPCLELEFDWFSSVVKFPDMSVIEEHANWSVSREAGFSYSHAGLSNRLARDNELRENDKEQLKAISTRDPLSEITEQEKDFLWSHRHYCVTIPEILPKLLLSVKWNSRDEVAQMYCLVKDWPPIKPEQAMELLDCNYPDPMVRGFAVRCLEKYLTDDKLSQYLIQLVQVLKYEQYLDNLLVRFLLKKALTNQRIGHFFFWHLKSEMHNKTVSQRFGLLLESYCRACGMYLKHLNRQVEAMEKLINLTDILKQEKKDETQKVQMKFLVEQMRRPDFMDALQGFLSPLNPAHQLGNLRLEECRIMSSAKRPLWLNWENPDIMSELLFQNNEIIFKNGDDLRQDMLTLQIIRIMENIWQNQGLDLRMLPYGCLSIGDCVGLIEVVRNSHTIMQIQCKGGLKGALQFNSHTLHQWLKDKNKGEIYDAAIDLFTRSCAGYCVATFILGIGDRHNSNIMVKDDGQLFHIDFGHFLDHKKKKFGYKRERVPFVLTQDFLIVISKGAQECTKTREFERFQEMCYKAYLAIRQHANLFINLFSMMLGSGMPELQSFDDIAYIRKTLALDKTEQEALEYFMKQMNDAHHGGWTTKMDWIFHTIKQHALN
UniProt P42338, whole entry: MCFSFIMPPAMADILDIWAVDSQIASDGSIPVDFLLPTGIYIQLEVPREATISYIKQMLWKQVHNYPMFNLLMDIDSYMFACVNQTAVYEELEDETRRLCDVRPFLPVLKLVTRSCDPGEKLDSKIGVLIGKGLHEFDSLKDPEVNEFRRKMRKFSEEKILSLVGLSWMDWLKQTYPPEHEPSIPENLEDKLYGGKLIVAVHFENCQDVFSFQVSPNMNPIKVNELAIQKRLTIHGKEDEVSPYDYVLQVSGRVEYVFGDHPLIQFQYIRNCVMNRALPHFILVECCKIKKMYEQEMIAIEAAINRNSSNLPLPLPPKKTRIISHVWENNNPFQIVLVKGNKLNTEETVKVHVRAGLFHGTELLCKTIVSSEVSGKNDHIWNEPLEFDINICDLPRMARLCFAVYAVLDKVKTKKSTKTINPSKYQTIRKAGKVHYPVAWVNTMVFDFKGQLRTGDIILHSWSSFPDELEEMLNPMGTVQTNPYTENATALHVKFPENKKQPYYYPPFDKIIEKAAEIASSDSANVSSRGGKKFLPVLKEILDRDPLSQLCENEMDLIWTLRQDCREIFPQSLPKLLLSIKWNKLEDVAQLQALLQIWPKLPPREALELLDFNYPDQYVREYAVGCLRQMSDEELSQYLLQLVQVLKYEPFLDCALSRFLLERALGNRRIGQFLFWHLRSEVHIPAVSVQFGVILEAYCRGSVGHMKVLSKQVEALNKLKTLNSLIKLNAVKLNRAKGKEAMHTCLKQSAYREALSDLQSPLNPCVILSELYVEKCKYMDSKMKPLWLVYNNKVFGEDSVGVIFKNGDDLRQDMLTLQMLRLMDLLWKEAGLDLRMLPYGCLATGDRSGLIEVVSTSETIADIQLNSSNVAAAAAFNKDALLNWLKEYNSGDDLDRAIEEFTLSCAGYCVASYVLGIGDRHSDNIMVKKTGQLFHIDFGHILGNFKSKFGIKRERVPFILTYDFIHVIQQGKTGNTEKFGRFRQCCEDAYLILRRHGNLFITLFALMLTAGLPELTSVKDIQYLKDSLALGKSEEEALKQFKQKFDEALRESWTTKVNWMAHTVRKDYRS
UniProt P48736, whole entry: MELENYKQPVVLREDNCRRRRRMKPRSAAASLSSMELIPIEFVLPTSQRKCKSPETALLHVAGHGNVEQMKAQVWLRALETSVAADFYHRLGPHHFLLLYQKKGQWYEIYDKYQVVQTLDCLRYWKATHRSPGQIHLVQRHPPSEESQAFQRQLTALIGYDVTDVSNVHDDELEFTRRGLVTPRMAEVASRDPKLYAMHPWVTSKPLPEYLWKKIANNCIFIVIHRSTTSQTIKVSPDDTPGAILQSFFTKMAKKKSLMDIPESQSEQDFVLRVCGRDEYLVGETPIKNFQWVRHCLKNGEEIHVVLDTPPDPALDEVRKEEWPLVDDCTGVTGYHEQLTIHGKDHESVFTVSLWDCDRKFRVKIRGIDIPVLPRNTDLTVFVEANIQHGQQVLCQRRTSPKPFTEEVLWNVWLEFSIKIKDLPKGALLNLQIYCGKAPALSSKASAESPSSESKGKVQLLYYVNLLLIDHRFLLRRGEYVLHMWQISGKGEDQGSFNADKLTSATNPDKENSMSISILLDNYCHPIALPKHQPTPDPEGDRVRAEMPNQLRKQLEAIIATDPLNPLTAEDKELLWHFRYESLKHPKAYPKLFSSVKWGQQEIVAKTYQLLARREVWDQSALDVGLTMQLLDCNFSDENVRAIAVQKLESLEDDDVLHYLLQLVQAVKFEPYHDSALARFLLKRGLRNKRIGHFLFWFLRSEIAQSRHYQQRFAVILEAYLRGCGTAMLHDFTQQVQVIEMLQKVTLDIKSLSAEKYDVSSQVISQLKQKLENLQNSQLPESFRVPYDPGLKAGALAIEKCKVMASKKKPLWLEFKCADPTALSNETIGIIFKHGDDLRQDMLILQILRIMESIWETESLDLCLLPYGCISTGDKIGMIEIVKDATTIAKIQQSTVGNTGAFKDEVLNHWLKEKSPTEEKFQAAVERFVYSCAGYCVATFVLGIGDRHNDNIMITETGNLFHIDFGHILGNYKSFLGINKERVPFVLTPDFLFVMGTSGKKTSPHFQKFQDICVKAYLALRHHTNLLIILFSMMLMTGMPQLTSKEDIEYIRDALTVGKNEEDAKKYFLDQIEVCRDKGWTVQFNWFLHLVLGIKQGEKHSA

The structures given here were assigned with low confidence; some may be wrong.

Test [1] has as its target PIK3Cδ_h (Homo sapiens (Human), UniProt O00329). The experiment in a line: KINOMEscan enzyme binding assay, PIK3Cδ. The following applies: read-out: Kd PIK3Cδ_h, DiscoveRx, tested form: 1.9 HCl 0.89 H2O.
The test system of test [2] is Akt phosphorylated at Thr308 in PC-3 cells. The experiment in a line: Cellular assay: phosphorylation of Akt (Thr308) in PC-3 cells, MSD ELISA. The following applies: read-out: IC50 pAkt_Thr308, 60 min incubation with compound, tested form: 1.9 HCl 0.89 H2O. For orientation: In an ELISA, binding on a coated surface is turned into a signal by an enzyme label.
Test [3] concerns the target PIK3Cα_h (Homo sapiens (Human), UniProt P42336). The experiment in a line: KINOMEscan enzyme binding assay, PIK3Cα. The following applies: read-out: Kd PIK3Cα_h, DiscoveRx, tested form: 1.9 HCl 0.89 H2O.
The subject of test [4] is Akt phosphorylated at Ser473 in PC-3 cells. The test is described as follows: Cellular assay: phosphorylation of Akt (Ser473) in PC-3 cells, MSD ELISA. The following applies: read-out: IC50 pAkt_S473, 60 min incubation with compound, tested form: 1.9 HCl 0.89 H2O.
For test [5], the target named is MTOR_h (Homo sapiens (Human), UniProt P42345). The experiment in a line: KINOMEscan enzyme binding assay, MTOR. The following applies: read-out: Kd MTOR_h, DiscoveRx, tested form: 1.9 HCl 0.89 H2O.
In test [6] the target is PIK3Cβ_h (Homo sapiens (Human), UniProt P42338). The experiment in a line: KINOMEscan enzyme binding assay, PIK3Cβ. The following applies: read-out: Kd PIK3Cβ_h, DiscoveRx, tested form: 1.9 HCl 0.89 H2O.
In test [7] the target is PIK3Cγ_h (Homo sapiens (Human), UniProt P48736). The test is described as follows: KINOMEscan enzyme binding assay, PIK3Cγ. The following applies: read-out: Kd PIK3Cγ_h, DiscoveRx, tested form: 1.9 HCl 0.89 H2O.

On to `Cc1c(Cc2c(COC(=O)C3(N)CC3)nc3c(N)cc(N4CCOCC4)nn23)cccc1C(F)(F)F`, for which the equilibrium dissociation constant (Kd) (in general, the concentration at which binding is half-saturated) was 309 nM in test [1]; 22200 nM in test [3]; greater than 28200 nM in test [5]; 2.1 nM in test [6]; greater than 30200 nM in test [7]. Moreover, the half-maximal inhibitory concentration (IC50) (in general, the point on the concentration scale where inhibition reaches its midpoint) is 81 nM in test [2] and 159 nM in test [4].
